PubChem BioAssay (EPA / NIEHS)
For some of these results: Most of the hits are listed elsewhere, so they are rarer here than in the full data. Results filed as inconclusive are left out. The list shows a part of the results, in another mix than the full data. Where a structure was tested more than once in an assay, its records may differ in their call. Calls of active or inactive are those of the source. Rule for the calls, unless noted: active = hit-call score of the fitted dose curve at least 0.9, where 1 is the maximum; inactive = score below 0.9.

Chains of the proteins cited; added tags and fusions are not shown. Lines headed by an entry give the natural chain unless they say otherwise; changes in a name come on top.
UniProt P22680: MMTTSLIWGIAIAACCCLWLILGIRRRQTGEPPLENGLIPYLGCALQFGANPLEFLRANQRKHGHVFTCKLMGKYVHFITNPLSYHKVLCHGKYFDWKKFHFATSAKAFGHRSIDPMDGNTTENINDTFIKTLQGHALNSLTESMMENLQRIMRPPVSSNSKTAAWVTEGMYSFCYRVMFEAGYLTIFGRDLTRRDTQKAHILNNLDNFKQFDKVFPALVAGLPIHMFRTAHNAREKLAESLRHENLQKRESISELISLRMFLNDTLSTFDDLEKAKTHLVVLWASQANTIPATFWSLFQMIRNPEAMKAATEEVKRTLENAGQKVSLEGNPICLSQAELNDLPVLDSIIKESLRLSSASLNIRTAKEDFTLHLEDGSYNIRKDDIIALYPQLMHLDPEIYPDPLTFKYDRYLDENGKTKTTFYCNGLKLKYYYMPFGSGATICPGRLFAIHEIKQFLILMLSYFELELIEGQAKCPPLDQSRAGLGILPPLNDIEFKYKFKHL
UniProt P37231: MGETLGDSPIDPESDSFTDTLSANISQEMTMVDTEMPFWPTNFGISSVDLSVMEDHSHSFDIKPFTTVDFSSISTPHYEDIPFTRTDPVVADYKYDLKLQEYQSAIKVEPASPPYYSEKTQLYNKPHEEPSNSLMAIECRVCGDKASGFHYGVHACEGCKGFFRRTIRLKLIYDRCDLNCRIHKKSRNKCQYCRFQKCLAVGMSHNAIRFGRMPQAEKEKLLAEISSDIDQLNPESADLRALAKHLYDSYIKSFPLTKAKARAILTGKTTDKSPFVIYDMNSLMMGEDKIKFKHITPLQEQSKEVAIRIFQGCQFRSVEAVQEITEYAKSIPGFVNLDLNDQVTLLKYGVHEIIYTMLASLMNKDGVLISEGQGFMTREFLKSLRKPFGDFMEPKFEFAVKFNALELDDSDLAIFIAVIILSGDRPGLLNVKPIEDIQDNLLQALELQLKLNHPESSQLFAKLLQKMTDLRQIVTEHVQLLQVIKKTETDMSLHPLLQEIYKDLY

Legend:
[1] = read-out: ABC Transporter (ABCB11), ABCB11 (gene 8647); assay: LTEA_HepaRG_ABCB11: Life Technologies and Expression Analysis (LTEA) Assay for ABC Transporter (ABCB11) using HepaRG (AID 2283463); settings: actives raise or lower the signal; mRNA level, 48 h
Summary of the method: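 ABCB11 transcript levels quantified by TaqMan qRT-PCR against three housekeeping genes after 48 h chemical exposure of HepaRG cultures. Concentrations up to 100 uM in half-log steps, 0.5% DMSO vehicle; both induction and suppression scored.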

CYP2E1 (gene 1571) = assay: LTEA_HepaRG_CYP2E1: Life Technologies and Expression Analysis (LTEA) Assay for CYP2E1 using HepaRG (AID 2283485); settings: actives raise or lower the signal; mRNA level, 48 h
Summary of the method: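 Assay uses 48 h exposure of HepaRG hepatic cells, eight concentrations to 100 uM. Expression of CYP2E1 is quantified by TaqMan qRT-PCR with ACTB, GAPDH and POLR2A normalization; curves fitted in both directions relative to vehicle.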

[2] = read-out: Cytochrome P450 (CYP24A1), CYP24A1 (gene 1591); assay: LTEA_HepaRG_CYP24A1: Life Technologies and Expression Analysis (LTEA) Assay for Cytochrome P450 (CYP24A1) using HepaRG (AID 2283478); settings: actives raise or lower the signal; mRNA level, 48 h
Summary of the method: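 qRT-PCR read-out: CYP24A1 transcript levels normalized to three housekeeping genes, bidirectional curve fits against 0.5% DMSO baseline. Human HepaRG cells treated 48 h with chemicals at eight concentrations from 100 uM in half-log steps.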

[3] = read-out: Early growth response protein 1 (EGR1) transcription factor, EGR1 (gene 1958); assay: LTEA_HepaRG_EGR1: Life Technologies and Expression Analysis (LTEA) Assay for Early growth response protein 1 (EGR1) transcription factor using HepaRG (AID 2283490); settings: actives raise or lower the signal; mRNA level, 48 h
Summary of the method: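 EGR1 transcript levels quantified by qRT-PCR (Fluidigm arrays) against three housekeeping genes after 48 h chemical exposure of HepaRG cells. Eight-point half-log series topping at 100 uM, 0.5% DMSO vehicle, analyzed for gain or loss.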

[4] = read-out: Cytochrome P450 7A1 (Homo sapiens) (UniProt P22680); assay: LTEA_HepaRG_CYP7A1: Life Technologies and Expression Analysis (LTEA) Assay for Cytochrome P450 7A1 (CYP7A1) using HepaRG (AID 2283496); settings: actives raise or lower the signal; mRNA level, 48 h
Summary of the method: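 Using 0.5% DMSO as vehicle and baseline, chemicals were tested in duplicate over an 8-point range from 100 uM on HepaRG cells for 48 h; qRT-PCR signals were normalised to ACTB, GAPDH and POLR2A.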

[5] = ACEA_AR_antagonist_AUC_viability: ACEA Biosciences xCELLigence Real-Time Cell Analysis on Androgen Receptor Antagonism for Viability (AID 2283776; active = hit-call score of the fitted dose curve at least 0.9, where 1 is the maximum;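 note: 22Rv1 human prostate cancer cells growing on impedance electrode plates; area under impedance growth curve at 80 h after dosing as viability; hits lower the growth signal relative to DMSO meaning cytotoxicity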)
Summary of the method: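 Real-time electrical impedance tracks 22Rv1 proliferation after continuous compound exposure (top 100 uM final, 1:4 steps, 8 concentrations). The 80 h area-under-curve serves as the cytotoxicity readout relative to DMSO.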

[6] = read-out: growth arrest and DNA damage 45 (GADD45G), GADD45G (gene 10912); assay: LTEA_HepaRG_GADD45G: Life Technologies and Expression Analysis (LTEA) Assay for growth arrest and DNA damage 45 (GADD45G) using HepaRG (AID 2283499); settings: actives raise or lower the signal; mRNA level, 48 h
Summary of the method: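 HepaRG, 48 h exposure, top 100 uM, half-log 8-point series, 0.5% DMSO vehicle, duplicates. Readout: GADD45G transcript by qRT-PCR (Fluidigm array), housekeeping-normalised (ACTB/GAPDH/POLR2A). Bidirectional curve fit vs DMSO baseline.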

[7] = read-out: Pro-epidermal growth factor (Homo sapiens) (UniProt P01133); assay: LTEA_HepaRG_EGF: Life Technologies and Expression Analysis (LTEA) Assay for Epidermal growth factor (EGF) using HepaRG (AID 2283489); settings: actives raise or lower the signal; mRNA level, 48 h
Summary of the method: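 qRT-PCR readout of EGF transcript after 48 h chemical exposure of HepaRG cells; eight concentrations from 100 uM down in half-log steps, duplicate wells, 0.5% DMSO vehicle. Bidirectional curve fitting against DMSO baseline.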

[8] = read-out: DNA damage-inducible transcript 3 (DDIT3), DDIT3 (gene 1649); assay: LTEA_HepaRG_DDIT3: Life Technologies and Expression Analysis (LTEA) Assay for DNA damage-inducible transcript 3 (DDIT3) using HepaRG (AID 2283488); settings: actives raise or lower the signal; mRNA level, 48 h
Summary of the method: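 Eight-point concentration-response (100 uM highest, half-log dilutions) in HepaRG, 48 h, duplicate wells. Endpoint: qRT-PCR mRNA, normalized (ACTB, GAPDH, POLR2A), bidirectional fitting with DMSO as baseline.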

[9] = read-out: Insulin Like Growth Factor 1 (IGF1), IGF1 (gene 3479); assay: LTEA_HepaRG_IGF1: Life Technologies and Expression Analysis (LTEA) Assay for Insulin Like Growth Factor 1 (IGF1) using HepaRG (AID 2283506); settings: actives raise or lower the signal; mRNA level, 48 h
Summary of the method: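 Endpoint: IGF1 mRNA change by qRT-PCR, housekeeping-normalized, fitted bidirectionally relative to 0.5% DMSO vehicle. Human HepaRG cells were treated 48 h in serum-free induction medium, eight half-log concentrations topping at 100 uM.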

[10] = read-out: ABC Transporter (ABCC3), ABCC3 (gene 8714); assay: LTEA_HepaRG_ABCC3: Life Technologies and Expression Analysis (LTEA) Assay for ABC Transporter (ABCC3) using HepaRG (AID 2283462); settings: actives raise or lower the signal; mRNA level, 48 h
Summary of the method: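 qRT-PCR read-out of ABCC3 transcript, normalized to three housekeeping genes (ACTB, GAPDH, POLR2A), after 48 h chemical exposure of human HepaRG cells. Eight half-log concentrations, highest 100 uM, in 0.5% DMSO; gain or loss fitted relative to DMSO baseline.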

[11] = read-out: Potassium channel subfamily K member 1 (KCNK1), KCNK1 (gene 3775); assay: LTEA_HepaRG_KCNK1: Life Technologies and Expression Analysis (LTEA) Assay for Potassium channel subfamily K member 1 (KCNK1) using HepaRG (AID 2283511); settings: actives raise or lower the signal; mRNA level, 48 h
Summary of the method: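 KCNK1 transcript measured by TaqMan qRT-PCR against three housekeeping genes, after HepaRG cells were treated 48 h with eight half-log concentrations (top 100 uM, 0.5% DMSO). Curves fitted bidirectionally relative to vehicle.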

[12] = CCTE_Simmons_CellTiterGLO_HEK293T: Viability Assessment in CCTE's Assays for Thyroperoxidase (TPO) Inhibition, Simmons Lab (AID 2283665; active = hit-call score of the fitted dose curve at least 0.9, where 1 is the maximum;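 note: cells exposed to compound for 24 h before readout; actives reduce ATP signal below DMSO vehicle meaning cytotoxicity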)
Summary of the method: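 ATP depletion measured in HEK293T cells after 24 h dosing (8 concentrations, 5 nM–87.5 uM final; DMSO 0.5%) using CellTiter-Glo luminescence; curves fit for loss of signal against DMSO baseline.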

[13] = molecular target: Peroxisome proliferator-activated receptor gamma (Homo sapiens) (UniProt P37231); assay: ATG_hPPARg_XSP2: Attagene TRANS-FACTORIAL Multi-Species (XSP2) HepG2 Assay for human Peroxisome Proliferator-activated Receptor gamma (PPARg) (AID 2283829; active = hit-call score of the fitted dose curve at least 0.9, where 1 is the maximum;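 note: actives raise reporter mRNA above DMSO so AC50 reflects PPARg activation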)
Summary of the method: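 Transient MRTU transfection, HepG2; TRANS format (exogenous NR-Gal4 chimeras). 24 h chemical exposure with 3 nM 6-alpha-fluorotestosterone and 1.5 nM norgestrel present. Readout: reporter mRNA via RT-PCR/CE fluorescence, up-direction vs DMSO.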

Which outcome [1] does the source give for `C1=Cc2cccc3cccc1c23` here?
Its outcome is “inactive”.

What about the outcome (CYP2E1 (gene 1571)) of the same compound?
Its outcome is “inactive”.

With `CCN(CC)N=O` as the compound, how does the outcome [2] read?
Its outcome is “inactive”.

What about the outcome [3] of the same compound?
Its outcome is “inactive”.

What about the outcome [4] of the same compound?
The outcome was “inactive”.

And the outcome [5]?
The outcome was “inactive”.

For `CC(Cl)(Cl)C(=O)O`, which outcome [2] is on record?
The outcome was “inactive”.

For `CCOP(=O)(OCC)Oc1nc(Cl)c(Cl)cc1Cl`, which AC50 [6] is on record?
Its AC50 is active: 83.8 µM.

Which outcome [7] does the source give for `O=c1n(Cl)c(=O)n(Cl)c(=O)n1Cl` here?
The outcome was “inactive”.

For `CC(Cc1ccc(OCC(=O)O)cc1)NCC(O)c1csc(C(F)(F)F)n1` (stereo unspecified), which outcome [8] is on record?
Its outcome is “inactive”.

For `Cc1nn(-c2cc(NS(C)(=O)=O)c(Cl)cc2Cl)c(=O)n1C(F)F`, which AC50 [1] is on record?
The AC50 was active: 9.92 µM.

And the outcome [9]?
Its outcome is “inactive”.

What does the source list for `CC(C)(C)c1cc(O)ccc1O`?
outcome [10]: inactive; outcome [11]: inactive; AC50 [12]: active: 93.7 µM; AC50 [13]: active: 68.1 µM
